Assay results from the supplement of paper PMC7666118.
The list shows a part of the results.

By UniProt entry, the sequences of proteins in these tests, tags left out. Where a name states a change or a piece, a line headed by the entry shows the natural chain unless it says otherwise.
UniProt P68104, whole entry: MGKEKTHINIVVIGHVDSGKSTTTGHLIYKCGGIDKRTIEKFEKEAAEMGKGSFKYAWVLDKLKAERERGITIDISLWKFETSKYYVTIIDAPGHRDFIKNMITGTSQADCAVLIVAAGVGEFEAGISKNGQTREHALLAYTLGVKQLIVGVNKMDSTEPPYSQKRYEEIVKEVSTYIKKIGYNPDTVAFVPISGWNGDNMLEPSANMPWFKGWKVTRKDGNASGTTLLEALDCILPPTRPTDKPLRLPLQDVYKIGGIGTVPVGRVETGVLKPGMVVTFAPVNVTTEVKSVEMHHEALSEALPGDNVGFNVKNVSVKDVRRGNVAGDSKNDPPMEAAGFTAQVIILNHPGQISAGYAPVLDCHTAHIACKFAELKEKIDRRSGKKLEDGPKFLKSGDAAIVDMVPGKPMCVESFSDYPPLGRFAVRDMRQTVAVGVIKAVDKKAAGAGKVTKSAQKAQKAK
UniProt P55039: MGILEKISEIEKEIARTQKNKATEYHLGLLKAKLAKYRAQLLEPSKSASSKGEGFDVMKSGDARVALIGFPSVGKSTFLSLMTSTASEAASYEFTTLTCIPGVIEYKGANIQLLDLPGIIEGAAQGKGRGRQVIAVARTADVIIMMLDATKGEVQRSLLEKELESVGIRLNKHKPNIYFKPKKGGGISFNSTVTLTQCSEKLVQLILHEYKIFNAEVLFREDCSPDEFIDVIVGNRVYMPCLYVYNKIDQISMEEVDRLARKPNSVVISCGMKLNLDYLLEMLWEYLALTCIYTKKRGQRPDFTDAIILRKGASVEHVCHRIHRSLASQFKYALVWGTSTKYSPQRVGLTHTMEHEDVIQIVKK
UniProt Q16254: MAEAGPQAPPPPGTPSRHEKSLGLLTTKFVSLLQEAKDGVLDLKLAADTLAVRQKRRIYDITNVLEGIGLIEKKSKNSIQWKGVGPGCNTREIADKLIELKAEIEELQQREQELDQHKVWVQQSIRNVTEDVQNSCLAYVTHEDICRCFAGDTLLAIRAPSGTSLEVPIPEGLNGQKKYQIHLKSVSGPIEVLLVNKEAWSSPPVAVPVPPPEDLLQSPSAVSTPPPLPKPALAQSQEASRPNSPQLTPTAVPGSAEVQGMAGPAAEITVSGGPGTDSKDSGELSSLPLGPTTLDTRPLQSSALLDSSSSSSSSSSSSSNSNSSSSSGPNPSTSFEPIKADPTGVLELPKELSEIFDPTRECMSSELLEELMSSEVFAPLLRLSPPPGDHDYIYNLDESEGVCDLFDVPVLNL
UniProt Q9NVH1: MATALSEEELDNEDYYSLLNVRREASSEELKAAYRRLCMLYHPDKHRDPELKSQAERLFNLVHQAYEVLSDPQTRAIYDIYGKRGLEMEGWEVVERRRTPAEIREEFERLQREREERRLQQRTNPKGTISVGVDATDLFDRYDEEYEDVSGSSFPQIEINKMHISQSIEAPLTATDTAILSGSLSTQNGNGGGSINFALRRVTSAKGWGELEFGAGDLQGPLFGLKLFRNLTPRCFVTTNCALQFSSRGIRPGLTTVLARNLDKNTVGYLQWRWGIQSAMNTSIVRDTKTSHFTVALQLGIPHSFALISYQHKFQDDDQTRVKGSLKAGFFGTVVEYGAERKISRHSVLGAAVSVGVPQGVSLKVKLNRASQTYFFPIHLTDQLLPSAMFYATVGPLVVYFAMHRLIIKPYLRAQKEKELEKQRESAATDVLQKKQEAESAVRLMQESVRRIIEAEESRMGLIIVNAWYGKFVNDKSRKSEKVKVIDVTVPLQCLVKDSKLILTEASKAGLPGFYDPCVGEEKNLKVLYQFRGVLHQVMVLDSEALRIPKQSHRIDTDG
UniProt Q9H3H5: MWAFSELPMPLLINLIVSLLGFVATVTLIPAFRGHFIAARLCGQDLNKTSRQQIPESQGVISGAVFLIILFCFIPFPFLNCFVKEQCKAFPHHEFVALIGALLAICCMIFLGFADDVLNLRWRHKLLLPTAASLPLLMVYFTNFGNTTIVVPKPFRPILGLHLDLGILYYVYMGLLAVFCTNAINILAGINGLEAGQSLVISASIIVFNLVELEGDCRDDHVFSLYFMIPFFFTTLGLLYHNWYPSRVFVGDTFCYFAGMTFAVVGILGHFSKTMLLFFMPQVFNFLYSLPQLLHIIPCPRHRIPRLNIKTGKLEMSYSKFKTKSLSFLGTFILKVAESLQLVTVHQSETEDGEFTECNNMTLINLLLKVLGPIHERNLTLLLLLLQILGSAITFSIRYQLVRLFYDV
UniProt Q14919: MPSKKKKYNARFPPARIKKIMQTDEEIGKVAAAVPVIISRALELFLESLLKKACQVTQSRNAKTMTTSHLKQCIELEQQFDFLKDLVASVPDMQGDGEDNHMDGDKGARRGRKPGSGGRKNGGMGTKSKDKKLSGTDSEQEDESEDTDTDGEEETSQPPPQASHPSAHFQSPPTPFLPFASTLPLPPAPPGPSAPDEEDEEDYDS
UniProt Q32P44: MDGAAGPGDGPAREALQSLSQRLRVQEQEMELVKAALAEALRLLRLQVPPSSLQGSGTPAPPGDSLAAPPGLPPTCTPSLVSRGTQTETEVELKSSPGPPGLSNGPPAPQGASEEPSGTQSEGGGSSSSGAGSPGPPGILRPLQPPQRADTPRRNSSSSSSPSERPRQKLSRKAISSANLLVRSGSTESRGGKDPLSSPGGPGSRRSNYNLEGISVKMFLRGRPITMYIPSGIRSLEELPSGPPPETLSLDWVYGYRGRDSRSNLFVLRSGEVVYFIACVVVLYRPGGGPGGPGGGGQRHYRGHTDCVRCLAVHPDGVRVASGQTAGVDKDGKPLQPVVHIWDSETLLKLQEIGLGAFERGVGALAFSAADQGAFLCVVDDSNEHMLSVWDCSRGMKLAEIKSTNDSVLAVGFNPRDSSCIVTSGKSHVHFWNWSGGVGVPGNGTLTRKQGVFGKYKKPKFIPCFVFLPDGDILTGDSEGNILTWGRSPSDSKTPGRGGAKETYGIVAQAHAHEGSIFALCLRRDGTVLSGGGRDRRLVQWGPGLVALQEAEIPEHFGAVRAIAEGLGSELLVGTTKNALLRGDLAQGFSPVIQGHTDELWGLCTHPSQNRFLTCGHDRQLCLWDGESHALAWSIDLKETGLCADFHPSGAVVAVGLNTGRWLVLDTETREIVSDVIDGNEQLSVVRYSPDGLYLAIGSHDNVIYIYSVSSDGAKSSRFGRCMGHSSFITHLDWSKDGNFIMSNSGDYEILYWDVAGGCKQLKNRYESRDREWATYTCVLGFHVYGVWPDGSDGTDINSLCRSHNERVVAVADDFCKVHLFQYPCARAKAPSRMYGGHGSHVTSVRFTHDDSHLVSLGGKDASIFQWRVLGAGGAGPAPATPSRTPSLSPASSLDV
UniProt O60832: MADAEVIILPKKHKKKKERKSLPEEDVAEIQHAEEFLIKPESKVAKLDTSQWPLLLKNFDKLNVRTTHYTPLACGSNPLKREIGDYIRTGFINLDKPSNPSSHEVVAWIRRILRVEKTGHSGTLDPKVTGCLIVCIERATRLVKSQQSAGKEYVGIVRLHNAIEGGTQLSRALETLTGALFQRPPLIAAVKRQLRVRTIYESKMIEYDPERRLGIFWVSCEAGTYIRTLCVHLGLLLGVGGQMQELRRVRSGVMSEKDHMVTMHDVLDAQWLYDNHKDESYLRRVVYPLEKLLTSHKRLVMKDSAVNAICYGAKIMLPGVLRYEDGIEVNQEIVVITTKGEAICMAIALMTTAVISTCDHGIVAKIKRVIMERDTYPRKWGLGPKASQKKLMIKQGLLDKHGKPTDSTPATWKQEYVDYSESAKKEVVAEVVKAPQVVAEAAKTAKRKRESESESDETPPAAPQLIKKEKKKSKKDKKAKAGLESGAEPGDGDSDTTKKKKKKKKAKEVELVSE
UniProt P10515, whole entry: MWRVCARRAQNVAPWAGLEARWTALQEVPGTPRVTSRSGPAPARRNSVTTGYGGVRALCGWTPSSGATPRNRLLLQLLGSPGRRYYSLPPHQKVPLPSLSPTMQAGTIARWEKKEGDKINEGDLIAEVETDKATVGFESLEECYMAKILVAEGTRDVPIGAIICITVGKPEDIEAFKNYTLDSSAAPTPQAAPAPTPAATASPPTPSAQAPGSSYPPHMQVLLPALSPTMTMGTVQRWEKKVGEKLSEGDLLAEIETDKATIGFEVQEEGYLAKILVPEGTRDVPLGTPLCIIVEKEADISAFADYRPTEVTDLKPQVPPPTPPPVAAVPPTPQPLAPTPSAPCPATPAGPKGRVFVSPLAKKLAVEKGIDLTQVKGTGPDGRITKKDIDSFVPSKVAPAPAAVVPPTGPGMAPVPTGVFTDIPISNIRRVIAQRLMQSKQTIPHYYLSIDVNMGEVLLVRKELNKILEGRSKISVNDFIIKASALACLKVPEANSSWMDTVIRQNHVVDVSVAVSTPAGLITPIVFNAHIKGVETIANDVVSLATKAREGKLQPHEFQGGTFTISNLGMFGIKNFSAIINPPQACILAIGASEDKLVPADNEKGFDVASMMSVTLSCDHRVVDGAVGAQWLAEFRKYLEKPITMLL
UniProt Q9P2X0: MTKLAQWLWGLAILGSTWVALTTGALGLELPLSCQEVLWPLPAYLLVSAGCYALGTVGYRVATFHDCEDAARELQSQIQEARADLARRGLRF
UniProt O75616: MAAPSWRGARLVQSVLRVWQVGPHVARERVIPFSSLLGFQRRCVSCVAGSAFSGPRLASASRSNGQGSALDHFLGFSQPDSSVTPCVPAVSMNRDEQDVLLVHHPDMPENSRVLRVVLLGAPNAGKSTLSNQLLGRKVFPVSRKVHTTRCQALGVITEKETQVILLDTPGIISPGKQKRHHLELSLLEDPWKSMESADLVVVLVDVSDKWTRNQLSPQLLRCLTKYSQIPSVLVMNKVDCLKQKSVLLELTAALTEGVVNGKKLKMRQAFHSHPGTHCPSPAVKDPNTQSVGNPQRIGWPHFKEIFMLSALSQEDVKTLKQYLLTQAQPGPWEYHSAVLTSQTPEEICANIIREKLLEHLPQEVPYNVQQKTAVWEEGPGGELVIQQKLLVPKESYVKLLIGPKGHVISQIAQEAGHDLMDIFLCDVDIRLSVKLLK

compound: COc1ccc(Cn2ccc3ccc(C(=O)NO)cc32)cc1; assay: dose-dependent thermal stabilisation call (2D-TPP, DLPTP, 10% FDR) (binary (1 = stabilised)); higher = stabilised by the compound; settings: system: HL-60 intact cells; concentration range 0.04-10 µM

Target | dose-dependent thermal stabilisation call
EEF1A1 (UniProt P68104) | inactive: 0
DRG2 (UniProt P55039) | inactive: 0
E2F4 (UniProt Q16254) | inactive: 0
DNAJC11 (UniProt Q9NVH1) | inactive: 0
DPAGT1 (UniProt Q9H3H5) | inactive: 0
DRAP1 (UniProt Q14919) | inactive: 0
EML3 (UniProt Q32P44) | inactive: 0
DKC1 (UniProt O60832) | inactive: 0
DLAT (UniProt P10515) | inactive: 0
DPM3 (UniProt Q9P2X0) | inactive: 0
ERAL1 (UniProt O75616) | inactive: 0

Given as tab-separated lines: part of the list above
Target	dose-dependent thermal stabilisation call
EEF1A1 (UniProt P68104)	inactive: 0
ERAL1 (UniProt O75616)	inactive: 0
